# From the supplement of paper PMC8728848
# The other results are listed elsewhere or left out.
# How the values were obtained:
# Assay in all cases: glycan array binding signal (z-score within array); higher = stronger binding
# Settings in all cases: glycan notation: IUPAC condensed, linker removed
# [1] = biological target: Fuc(a1-2)[GalNAc(a1-3)]Gal(b1-4)Glc
# Procedure, shortened: (§1)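 The binding signal is a Z-score computed within each array. Data were drawn from 3228 arrays in the Consortium for Functional Glycomics database, restricted to those with a known protein sequence. Scores were averaged over arrays of the same protein sequence at different concentrations or buffers, and over linkers, and negative values can be taken as non-binding.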
# [2] = biological target: Fuc(a1-2)[GalNAc(a1-3)]Gal(b1-4)GlcNAc
# Procedure, shortened: as §1
# [3] = biological target: Fuc(a1-2)[GalNAc(a1-3)]Gal(b1-4)GlcNAc(b1-2)Man(a1-3)[Fuc(a1-2)[GalNAc(a1-3)]Gal(b1-4)GlcNAc(b1-2)Man(a1-6)]Man(b1-4)GlcNAc(b1-4)GlcNAc
# Procedure, shortened: as §1
# [4] = biological target: Fuc(a1-2)[GalNAc(a1-3)]Gal(b1-4)GlcNAc(b1-2)Man(a1-3)[Fuc(a1-2)[GalNAc(a1-3)]Gal(b1-4)GlcNAc(b1-2)Man(a1-6)]Man(b1-4)GlcNAc(b1-4)[Fuc(a1-6)]GlcNAc
# Procedure, shortened: as §1
# [5] = biological target: Fuc(a1-2)[GalNAc(a1-3)]Gal(b1-4)GlcNAc(b1-3)Gal(b1-4)GlcNAc
# Procedure, shortened: as §1
# [6] = biological target: Fuc(a1-2)[GalNAc(a1-3)]Gal(b1-4)GlcNAc(b1-3)Gal(b1-4)GlcNAc(b1-3)Gal(b1-4)GlcNAc
# Procedure, shortened: as §1
# [7] = biological target: Fuc(a1-2)[GalNAc(a1-3)]Gal(b1-4)GlcNAc(b1-3)GalNAc
# Procedure, shortened: as §1
# [8] = biological target: Fuc(a1-2)[GalNAc(a1-3)]Gal(b1-4)[Fuc(a1-3)]GlcNAc
# Procedure, shortened: as §1
# [9] = biological target: Fuc(a1-2)[GalNAc(a1-3)]Gal(b1-4)[Fuc(a1-3)]GlcNAc(b1-3)GalNAc
# Procedure, shortened: as §1
# [10] = biological target: Fuc(a1-2)[GalNAc(a1-4)]Gal(b1-4)GlcNAc
# Procedure, shortened: as §1
# [11] = biological target: Fuc(a1-2)[GalNAc(b1-3)]Gal
# Procedure, shortened: as §1
# Fuc(a1-3)GlcNAc = biological target: Fuc(a1-3)GlcNAc
# Procedure, shortened: as §1
# [12] = biological target: Fuc(a1-3)[Gal(b1-4)]Glc6S
# Procedure, shortened: as §1
# [13] = biological target: Fuc(a1-3)[Gal(b1-4)]GlcNAc
# Procedure, shortened: as §1
# [14] = biological target: Fuc(a1-3)[Gal(b1-4)]GlcNAc(b1-2)Man(a1-3)[Fuc(a1-3)[Gal(b1-4)]GlcNAc(b1-2)Man(a1-6)]Man(b1-4)GlcNAc(b1-4)GlcNAc
# Procedure, shortened: as §1
# [15] = biological target: Fuc(a1-3)[Gal(b1-4)]GlcNAc(b1-2)Man(a1-3)[Fuc(a1-3)[Gal(b1-4)]GlcNAc(b1-2)Man(a1-6)]Man(b1-4)GlcNAc(b1-4)[Fuc(a1-6)]GlcNAc
# Procedure, shortened: as §1
# [16] = biological target: Fuc(a1-3)[Gal(b1-4)]GlcNAc(b1-3)Gal(b1-3)[Fuc(a1-4)]GlcNAc
# Procedure, shortened: as §1
# [17] = biological target: Fuc(a1-3)[Gal(b1-4)]GlcNAc(b1-3)GalNAc
# Procedure, shortened: as §1
# [18] = biological target: Fuc(a1-3)[Gal(b1-4)]GlcNAc(b1-4)Gal(b1-4)[Fuc(a1-3)]GlcNAc
# Procedure, shortened: as §1
# [19] = biological target: Fuc(a1-3)[Gal(b1-4)]GlcNAc(b1-4)Gal(b1-4)[Fuc(a1-3)]GlcNAc(b1-4)Gal(b1-4)[Fuc(a1-3)]GlcNAc
# Procedure, shortened: as §1
# [20] = biological target: Fuc(a1-3)[Gal(b1-4)]GlcNAc(b1-6)GalNAc
# Procedure, shortened: as §1
# [21] = biological target: Fuc(a1-3)[Gal(b1-4)]GlcNAc(b1-6)[Gal(b1-3)GlcNAc(b1-3)]Gal(b1-4)Glc
# Procedure, shortened: as §1
# [22] = biological target: Fuc(a1-3)[Gal(b1-4)]GlcNAc(b1-6)[Neu5Ac(a2-3)Gal(b1-3)]GalNAc
# Procedure, shortened: as §1
# [23] = biological target: Fuc(a1-3)[Gal(b1-4)]GlcNAc6S
# Procedure, shortened: as §1
# [24] = biological target: Fuc(a1-3)[Gal3S(b1-4)]GlcNAc
# Procedure, shortened: as §1
# [25] = biological target: Fuc(a1-3)[Gal3S(b1-4)]GlcNAc6S
# Procedure, shortened: as §1
# [26] = biological target: Fuc(a1-3)[GalNAc(b1-4)]GlcNAc
# Procedure, shortened: as §1
# Fuc(a1-4)GlcNAc = biological target: Fuc(a1-4)GlcNAc
# Procedure, shortened: as §1
# Fuc(b1-3)GlcNAc = biological target: Fuc(b1-3)GlcNAc
# Procedure, shortened: as §1
# Gal(a1-2)Gal = biological target: Gal(a1-2)Gal
# Procedure, shortened: as §1
binder,measurement,setting,value
"NanH (Corynebacterium diphtheriae), C6JSW6 (protein) MYSSNRTYSRAILGLSAVLTLSFTSLVAPVNAEEPETVVPATAELEGEVAATLPSAETGLLDAAPPKPVARGAAGDLQLPAVNEKEVFEEGRVIRAPEPDQSRCYRIPALVTAKNGDLLLAFDNRYGGGDGAKTWCRDAPYENMKRINRQNMQTDIQLYRSVDNGQSFEDFGYIAQGTADVRELSYTDPALVTDRTTGKIFAFFVRAYDYRVGQSSAGFNEGDVEAEIQKRDVQDTVVVESLDGGQTWGNMRLLSALTAKVSSISTGDTIFDGRGRFVTSGAGIQLQYGEHAGRLIVPISVDIDPKDSAKFINLAIYSDDHGQTWQAGIGTAGGAGFSGDVSKIVELSDGRLMMSSKDNDKPRWVSYSEDQGENWSTPKRKIIAPPQHPEKHNTGINVGLIRAYPNAPENSAAARVLLYSAPIDQRYSHKHTEDGRNNGWVMGSCDDGKTWSFGRQIEKNRFQYSSMTVMSDGNIGMVYESGDFSTGMNLKFAKFNMAWLGADCHSNEALGLTGDIDKEIVEAQEKAAEATKEAQEAAEKVQKLTEELAAARKENDELKNQVKGFKEAVGDLANEAEDLADKVFKLETAVTEAKEKATVAEKAASDAVTQLQKAESIAEEQKAKAESAAAEAQALREKLERLEGSILTVKENPEAEEIADLSSTAKDAADAARRAATDANGALSGQKQDEEKPAMGLMGILKVLAGIIPLVAIIATIFQTFRLPFNIPGMR",glycan array binding signal (z-score),[1],-0.096
same,glycan array binding signal (z-score),[2],0.823
same,glycan array binding signal (z-score),[3],-0.426
same,glycan array binding signal (z-score),[4],-0.586
same,glycan array binding signal (z-score),[5],0.149
same,glycan array binding signal (z-score),[6],0.612
same,glycan array binding signal (z-score),[7],-0.487
same,glycan array binding signal (z-score),[8],0.94
same,glycan array binding signal (z-score),[9],1.55
same,glycan array binding signal (z-score),[10],-0.114
same,glycan array binding signal (z-score),[11],-1.52
same,glycan array binding signal (z-score),Fuc(a1-3)GlcNAc,-0.067
same,glycan array binding signal (z-score),[12],-0.325
same,glycan array binding signal (z-score),[13],-0.243
same,glycan array binding signal (z-score),[14],-2.07
same,glycan array binding signal (z-score),[15],-0.264
same,glycan array binding signal (z-score),[16],-0.443
same,glycan array binding signal (z-score),[17],-0.067
same,glycan array binding signal (z-score),[18],0.083
same,glycan array binding signal (z-score),[19],-1.15
same,glycan array binding signal (z-score),[20],2.36
same,glycan array binding signal (z-score),[21],-0.136
same,glycan array binding signal (z-score),[22],0.377
same,glycan array binding signal (z-score),[23],-0.376
same,glycan array binding signal (z-score),[24],-0.688
same,glycan array binding signal (z-score),[25],-0.936
same,glycan array binding signal (z-score),[26],-0.575
same,glycan array binding signal (z-score),Fuc(a1-4)GlcNAc,0.273
same,glycan array binding signal (z-score),Fuc(b1-3)GlcNAc,-0.108
same,glycan array binding signal (z-score),Gal(a1-2)Gal,-1.72

# Pulled one by one from above (two):
binder,measurement,setting,value
"NanH (Corynebacterium diphtheriae), C6JSW6 (protein) MYSSNRTYSRAILGLSAVLTLSFTSLVAPVNAEEPETVVPATAELEGEVAATLPSAETGLLDAAPPKPVARGAAGDLQLPAVNEKEVFEEGRVIRAPEPDQSRCYRIPALVTAKNGDLLLAFDNRYGGGDGAKTWCRDAPYENMKRINRQNMQTDIQLYRSVDNGQSFEDFGYIAQGTADVRELSYTDPALVTDRTTGKIFAFFVRAYDYRVGQSSAGFNEGDVEAEIQKRDVQDTVVVESLDGGQTWGNMRLLSALTAKVSSISTGDTIFDGRGRFVTSGAGIQLQYGEHAGRLIVPISVDIDPKDSAKFINLAIYSDDHGQTWQAGIGTAGGAGFSGDVSKIVELSDGRLMMSSKDNDKPRWVSYSEDQGENWSTPKRKIIAPPQHPEKHNTGINVGLIRAYPNAPENSAAARVLLYSAPIDQRYSHKHTEDGRNNGWVMGSCDDGKTWSFGRQIEKNRFQYSSMTVMSDGNIGMVYESGDFSTGMNLKFAKFNMAWLGADCHSNEALGLTGDIDKEIVEAQEKAAEATKEAQEAAEKVQKLTEELAAARKENDELKNQVKGFKEAVGDLANEAEDLADKVFKLETAVTEAKEKATVAEKAASDAVTQLQKAESIAEEQKAKAESAAAEAQALREKLERLEGSILTVKENPEAEEIADLSSTAKDAADAARRAATDANGALSGQKQDEEKPAMGLMGILKVLAGIIPLVAIIATIFQTFRLPFNIPGMR",glycan array binding signal (z-score),[11],-1.52
same,glycan array binding signal (z-score),[6],0.612
